PubChem BioAssay AID1053208, Peter MacCallum Cancer Centre | 2014

Assay: 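Synthetic lethal interactions between gene loss and doxorubicin in osteosarcoma cells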 (primary screen)
System: mouse osteosarcoma cells, early-passage culture from an engineered mouse model of fibroblastic bone tumour
Knock-down reagent: siRNA pool against mouse genes, 40 nM
Duration: about 120 h (48 h before drug, then 72 h with drug)
Conditions: doxorubicin 100 nM for 72 h, roughly 30-40% inhibitory dose
Detection: 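Viability read as ATP luminescence after 72 h of 100 nM doxorubicin or none, duplicate wells averaged, scaled to non-targeting siRNA, then expressed as robust z-scores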
Scale: viability z-score with doxorubicin: higher = more viable cells under doxorubicin; viability z-score without drug: higher = more viable cells with knock-down alone
Active means: 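Called active if knock-down leaves viability unchanged without drug (z within -2 to 2) but lowers it with doxorubicin (z at or under -2)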
Here is an unselected part of about 17,000 deposited reagents. 788 of all reagents (4.7%) were called active. 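Calls rest on z-score classes alone; an extra cut-off of viability at most 70% of control was not applied to them.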 The numbers tell different reagents against one gene apart. Some reagents were tested in more than one well and are listed for each. Not all columns of the deposit are shown.

| Target gene | pool no. | combined z-score class | viability z-score with doxorubicin | viability z-score without drug | Outcome |
| --- | --- | --- | --- | --- | --- |
| Csrnp3 | 1 | no change with or without drug | 0.45 | 0.84 | inactive |
| Ndufa12 | 1 | no change with or without drug | -0.22 | 0.34 | inactive |
| Tacstd2 | 1 | no change with or without drug | -0.45 | -1.52 | inactive |
| Gapdh | 1 | no change with or without drug | -1.12 | -0.34 | inactive |
| Gapdh | 2 | low cell count without drug only | -1.35 | -2.02 | inactive |
| Kera | 1 | no change with or without drug | -0.79 | -0.84 | inactive |
| Vgll2 | 1 | no change with or without drug | 0.11 | 0.84 | inactive |
| Lect2 | 1 | no change with or without drug | 1.12 | 1.85 | inactive |
| Grhl1 | 1 | low cell count with doxorubicin only | -2.36 | -0.84 | active |
| Sgf29 | 1 | low cell count without drug only | -1.8 | -2.87 | inactive |
| Adad1 | 1 | no change with or without drug | -0.45 | -0.84 | inactive |
| Map2 | 1 | no change with or without drug | 0.45 | -0.17 | inactive |
| Trp53bp1 | 1 | no change with or without drug | -0.79 | 0.17 | inactive |
| Mrps10 | 1 | low cell count without drug only | 0.22 | -2.53 | inactive |
| Slc9a9 | 1 | no change with or without drug | 0.9 | 0 | inactive |
| BC012016 | 1 | no change with or without drug | -0.34 | -0.51 | inactive |
| Agrp | 1 | no change with or without drug | -0.45 | -0.17 | inactive |
| Lipk | 1 | no change with or without drug | 0.67 | -0.51 | inactive |
| Snx5 | 1 | no change with or without drug | 1.12 | 0.34 | inactive |
| Agpat1 | 1 | no change with or without drug | -0.9 | -0.84 | inactive |
| Mrps23 | 1 | no change with or without drug | 0.79 | -0.84 | inactive |
| Stk36 | 1 | low cell count with doxorubicin only | -2.47 | -1.35 | active |
| Stk36 | 1 | no change with or without drug | -0.45 | -0.84 | inactive |
| Elf4 | 1 | high cell count with doxorubicin only | 2.92 | 0.67 | inactive |
| Crabp1 | 1 | no change with or without drug | 1.57 | -0.34 | inactive |
| Cspp1 | 1 | no change with or without drug | -1.35 | 1.52 | inactive |
| Gabrg2 | 1 | no change with or without drug | 0.67 | 0.17 | inactive |
| Slc9d1 | 1 | no change with or without drug | 0 | 0.51 | inactive |
| Lbx2 | 1 | no change with or without drug | -0.45 | 1.85 | inactive |
| Pgghg | 1 | no change with or without drug | -0.9 | 0.34 | inactive |
| Fyco1 | 1 | no change with or without drug | 0.34 | 1.01 | inactive |
| Ror2 | 1 | no change with or without drug | 0.45 | -0.17 | inactive |
| Ccdc38 | 1 | no change with or without drug | 1.8 | 1.69 | inactive |
| Raet1b | 1 | no change with or without drug | 0.22 | -0.67 | inactive |

2 neighbouring records from above, quoted:
| Target gene | pool no. | combined z-score class | viability z-score with doxorubicin | viability z-score without drug | Outcome |
| --- | --- | --- | --- | --- | --- |
| Mrps23 | 1 | no change with or without drug | 0.79 | -0.84 | inactive |
| Stk36 | 1 | low cell count with doxorubicin only | -2.47 | -1.35 | active |
